According to PMC9513055:
No constants are given. Whether binding was seen depends on the method and setting. In cells and extracts the contact can be indirect. Some entries that bind do so weakly or less than the wild type. Blank lines part the entries; values can stand above or below the substance they belong to.

Chains of the proteins cited; added tags and fusions are not shown.
UniProt Q93009: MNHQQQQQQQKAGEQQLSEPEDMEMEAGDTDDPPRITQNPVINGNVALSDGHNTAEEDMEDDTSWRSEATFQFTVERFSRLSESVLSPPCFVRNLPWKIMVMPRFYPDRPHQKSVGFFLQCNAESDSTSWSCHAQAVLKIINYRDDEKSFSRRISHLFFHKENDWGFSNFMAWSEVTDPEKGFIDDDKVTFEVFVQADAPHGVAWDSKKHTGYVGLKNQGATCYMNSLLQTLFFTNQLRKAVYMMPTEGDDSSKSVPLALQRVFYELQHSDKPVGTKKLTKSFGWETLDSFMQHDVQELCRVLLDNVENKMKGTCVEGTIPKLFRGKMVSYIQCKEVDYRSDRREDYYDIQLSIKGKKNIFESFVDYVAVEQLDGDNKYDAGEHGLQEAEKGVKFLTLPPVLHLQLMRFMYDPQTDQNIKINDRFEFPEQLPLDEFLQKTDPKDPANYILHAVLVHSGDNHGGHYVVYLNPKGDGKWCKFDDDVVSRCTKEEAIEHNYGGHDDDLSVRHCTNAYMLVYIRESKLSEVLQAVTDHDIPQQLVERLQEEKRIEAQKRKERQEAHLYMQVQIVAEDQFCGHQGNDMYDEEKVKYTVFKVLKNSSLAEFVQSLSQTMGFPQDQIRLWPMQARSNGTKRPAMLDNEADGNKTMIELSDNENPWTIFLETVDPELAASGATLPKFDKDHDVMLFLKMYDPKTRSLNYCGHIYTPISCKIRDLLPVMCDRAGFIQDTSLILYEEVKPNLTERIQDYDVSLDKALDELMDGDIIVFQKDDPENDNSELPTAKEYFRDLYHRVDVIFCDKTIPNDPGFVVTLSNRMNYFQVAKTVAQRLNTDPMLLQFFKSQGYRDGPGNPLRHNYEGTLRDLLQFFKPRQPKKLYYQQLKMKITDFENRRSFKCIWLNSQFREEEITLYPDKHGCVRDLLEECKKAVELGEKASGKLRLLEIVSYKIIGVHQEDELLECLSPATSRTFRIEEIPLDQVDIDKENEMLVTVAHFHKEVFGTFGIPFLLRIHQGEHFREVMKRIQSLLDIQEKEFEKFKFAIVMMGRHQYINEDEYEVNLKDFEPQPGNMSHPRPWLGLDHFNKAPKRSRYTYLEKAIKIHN
UniProt P54578: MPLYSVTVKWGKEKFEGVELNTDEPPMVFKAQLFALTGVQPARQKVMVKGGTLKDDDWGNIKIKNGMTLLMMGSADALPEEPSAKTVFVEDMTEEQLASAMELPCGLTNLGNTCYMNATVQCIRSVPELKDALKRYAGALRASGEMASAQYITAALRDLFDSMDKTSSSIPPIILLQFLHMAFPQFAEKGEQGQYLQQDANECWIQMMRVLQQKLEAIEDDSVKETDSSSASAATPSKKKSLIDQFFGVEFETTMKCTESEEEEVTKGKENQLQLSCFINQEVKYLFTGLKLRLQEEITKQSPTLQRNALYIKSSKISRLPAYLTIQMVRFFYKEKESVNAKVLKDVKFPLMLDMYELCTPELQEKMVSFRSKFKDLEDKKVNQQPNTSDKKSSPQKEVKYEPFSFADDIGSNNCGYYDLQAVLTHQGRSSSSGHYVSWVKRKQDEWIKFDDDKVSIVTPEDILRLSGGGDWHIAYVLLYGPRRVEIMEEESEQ
UniProt P14902: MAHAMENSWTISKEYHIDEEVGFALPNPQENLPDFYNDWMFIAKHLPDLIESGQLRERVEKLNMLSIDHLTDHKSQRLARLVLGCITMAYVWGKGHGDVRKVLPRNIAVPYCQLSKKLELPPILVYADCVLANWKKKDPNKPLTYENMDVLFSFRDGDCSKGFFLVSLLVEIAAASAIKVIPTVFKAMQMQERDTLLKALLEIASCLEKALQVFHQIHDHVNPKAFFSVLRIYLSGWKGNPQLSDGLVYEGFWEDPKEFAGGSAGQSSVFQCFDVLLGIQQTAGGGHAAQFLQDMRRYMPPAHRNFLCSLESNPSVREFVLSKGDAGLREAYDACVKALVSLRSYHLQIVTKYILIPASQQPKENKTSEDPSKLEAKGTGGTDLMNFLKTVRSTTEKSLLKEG
UniProt P19474: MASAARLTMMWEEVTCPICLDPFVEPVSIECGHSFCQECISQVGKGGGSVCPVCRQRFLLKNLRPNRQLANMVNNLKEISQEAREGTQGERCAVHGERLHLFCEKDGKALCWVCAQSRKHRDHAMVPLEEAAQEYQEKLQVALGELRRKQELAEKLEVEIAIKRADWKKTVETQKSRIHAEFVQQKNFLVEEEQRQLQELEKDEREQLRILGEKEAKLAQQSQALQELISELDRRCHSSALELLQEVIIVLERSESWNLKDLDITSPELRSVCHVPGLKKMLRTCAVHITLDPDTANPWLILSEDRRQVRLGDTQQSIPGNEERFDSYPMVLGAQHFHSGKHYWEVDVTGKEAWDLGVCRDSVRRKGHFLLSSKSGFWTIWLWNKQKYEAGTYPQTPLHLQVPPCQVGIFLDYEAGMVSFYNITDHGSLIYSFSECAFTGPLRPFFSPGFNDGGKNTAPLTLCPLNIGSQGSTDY

Legend:
[1] = biological target: Flag-tagged USP7 expressed in HEK293FT cells (UniProt Q93009); test: co-IP; HEK293FT cells co-transfected for 48 h with a Flag-tagged and an HA-tagged protein; lysates (150 mM NaCl, 10 mM HEPES pH 7.4, 1% NP-40) immunoprecipitated with anti-Flag at 4 °C overnight; western blot
[2] = biological target: Flag-tagged USP14 expressed in HEK293FT cells (not stated (human or mouse cDNA cloned)) (UniProt P54578); test: as above
[3] = biological target: ubiquitin-specific protease-14 (USP14), endogenous in CRC cells (human (endogenous in HCT116 and SW480)) (UniProt P54578); test: co-IP; endogenous proteins of HCT116 lysates; anti-IDO1, anti-USP14 or anti-TRIM21 antibody with protein G agarose, 4 °C overnight; western blot
[4] = biological target: Indoleamine 2,3 dioxygenase 1 (IDO1), endogenous in HCT116 cells (human (endogenous in HCT116)) (UniProt P14902); test: as above

- binding [1]: binds
- binding [2]: binds
Substance: HA-IDO1 expressed in HEK293FT cells (from UniProt P14902 1-403)

- binding [3]: binds
Substance: Indoleamine 2,3 dioxygenase 1 (IDO1), endogenous in HCT116 cells (from UniProt P14902 1-403)

- binding [4]: binds
Substance: tripartite motif containing 21 (TRIM21), endogenous in CRC cells (from UniProt P19474 1-475)
